The source of these data is article PMC9303367, “Synthesis of Aminoethyl‐Substituted Piperidine Derivatives as σ1 Receptor Ligands with Antiproliferative Properties” (Chemmedchem, 2022).

The test relates to human non-small cell lung cancer cell line A427. The test is described as follows: A427 tumor cell proliferation (confluence) assay, IncuCyte S3 live cell imaging. The conditions noted are these: A-427, 120 h, read-out: Inhibition of cell confluency IC50 ± SD, A427 cells, last time point (approx. 5 d), n = 3.

The structures appear in SMILES notation.

In general, IC50 refers to the concentration at which inhibition is half-maximal. In the case of `O=C(CCCN1CCC(O)(c2ccc(Cl)cc2)CC1)c1ccc(F)cc1` [haloperidol, reference compound], the IC50 was 16 µM.
